Reference: paper PMC8586251, “Cryo-EM structure provides insights into the dimer arrangement of the O-linked β-N-acetylglucosamine transferase OGT” (Nature Communications, 2021)
No constants are given. Whether binding was seen depends on the method and setting. Some results given as binding are weak or reduced against the parent protein; the word gives no strength.

Molecular target: T1, O-GlcNAc transferase OGT, full length, isoform 1 (construct for cryo-EM), O15294
T1 chain: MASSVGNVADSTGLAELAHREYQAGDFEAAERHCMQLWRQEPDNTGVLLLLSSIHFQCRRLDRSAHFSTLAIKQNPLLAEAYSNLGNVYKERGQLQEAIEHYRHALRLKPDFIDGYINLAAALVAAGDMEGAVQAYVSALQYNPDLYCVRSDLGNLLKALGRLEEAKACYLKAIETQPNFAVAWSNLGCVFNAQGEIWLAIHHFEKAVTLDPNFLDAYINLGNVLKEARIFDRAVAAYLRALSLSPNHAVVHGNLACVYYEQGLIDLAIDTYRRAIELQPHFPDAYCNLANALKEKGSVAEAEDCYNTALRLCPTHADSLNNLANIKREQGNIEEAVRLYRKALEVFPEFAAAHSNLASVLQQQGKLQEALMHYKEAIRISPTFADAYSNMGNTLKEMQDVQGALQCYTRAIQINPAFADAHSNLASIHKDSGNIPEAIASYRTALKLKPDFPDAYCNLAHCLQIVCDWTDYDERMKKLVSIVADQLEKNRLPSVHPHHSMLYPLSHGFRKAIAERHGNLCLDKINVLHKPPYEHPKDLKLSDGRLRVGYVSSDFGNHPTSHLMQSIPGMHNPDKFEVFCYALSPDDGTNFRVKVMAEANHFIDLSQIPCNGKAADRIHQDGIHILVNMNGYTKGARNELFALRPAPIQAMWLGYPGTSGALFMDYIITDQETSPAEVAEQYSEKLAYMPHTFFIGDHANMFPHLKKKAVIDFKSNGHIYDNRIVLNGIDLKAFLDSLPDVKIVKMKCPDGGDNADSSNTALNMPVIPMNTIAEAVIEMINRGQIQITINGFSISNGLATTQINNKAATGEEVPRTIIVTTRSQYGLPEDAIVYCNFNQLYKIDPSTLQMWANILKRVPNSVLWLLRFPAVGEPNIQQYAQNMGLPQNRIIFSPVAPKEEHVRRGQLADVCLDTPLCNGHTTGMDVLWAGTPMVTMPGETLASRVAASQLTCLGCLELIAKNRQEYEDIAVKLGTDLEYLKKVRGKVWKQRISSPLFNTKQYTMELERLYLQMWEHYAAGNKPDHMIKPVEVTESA
Assay: cryo-EM structure; unliganded OGT at 1 mg/ml in 25 mM HEPES pH 7.5, 150 mM NaCl, 1 mM DTT, 0.5% glycerol; 5.3 Å map; dimer; both purified
Details: remark: other sources report otherwise

- binding: binds
B1: O-GlcNAc transferase OGT, full length, isoform 1 (construct for cryo-EM), O15294-3 1-1036 (enzyme)
chain: T1 chain
